Some of the results follow. Further columns of the screen follow, without active or inactive calls. Most of these compounds were active or inconclusive in the main read-out, so they are no random draw. The note in brackets gives the kind of curve behind each potency; many fits are weak.

A short description of this experiment: Cell signaling CRE-BLA (Fsk stim). Particulars: CHO CRE-bla reporter (cAMP response element driving beta-lactamase), forskolin EC10, beta-lactamase ratio; measured here: 460 nm blue channel. The gist of the method: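 Using CellSensor CRE-bla CHO cells in Opti-MEM with 0.5% dialyzed FBS, compounds were titrated with EC10 NKH 477 for 3 h at 37 °C. CCF4 ratio (460/530 nm) gave %Activity; AC50 derived.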
The AC50 is the midpoint of the concentration-response curve, whichever way the signal moves. As for `Cc1c(C)c2ccc(OCC(=O)N(C)C)c(C)c2oc1=O`, the AC50 was 12.6 µM [rising, single point].

For `COc1ccc(OCC(O)COc2ccc(OC)cc2)cc1`, the AC50 was 0.00398 µM [falling, partial curve, poor fit].

On to `CC1CCCc2sc3nc(NCc4ccco4)n4ncnc4c3c21` (stereo unspecified), for which the concentration at half-maximal activity (AC50) was 2 µM [rising, full curve].

Take `Nc1cc(=O)[nH]c(SCC(=O)Nc2ccc(Br)cc2)n1`: the AC50 was 2.51 µM [falling, partial curve].

For `O=C(Nc1ccc(Cl)c(C(F)(F)F)c1)C1CCCN(S(=O)(=O)c2cnc[nH]2)C1` (stereo unspecified), the AC50 was 0.0794 µM [falling, full curve, poor fit].

In the case of `Cc1ccc(NCc2nnc(SCC(=O)N(Cc3ccccc3)C(C)(C)C)o2)c(C)c1`, the AC50 is 15.8 µM [falling, partial curve].

As for `Cc1ccc(C)c(Cn2c(=O)n(CCC(=O)NCc3ccco3)c(=O)c3ccccc32)c1`, the AC50 was 12.6 µM [rising, single point].

Take `C=CCn1c(=O)c2ccccc2n2c(SCc3cc(=O)n4ccsc4n3)nnc12`: the AC50 was 10 µM [rising, single point].

For the compound `Cc1csc(OCc2ccc(C#N)cc2)n1`, the concentration at half-maximal activity (AC50) is 0.0794 µM [falling, full curve, poor fit].

Regarding `CCCC(=O)c1cc2ccccc2oc1=O`, the AC50 was 0.0631 µM [rising, full curve].

On to `COc1cccc(-c2nc(N3CCNCC3)c3ccccc3n2)c1`, for which the AC50 is 5.01 µM [rising, full curve, poor fit].

Regarding `Clc1ccc(OCCN2CCN(c3ncnc4sccc34)CC2)cc1`, the AC50 was 0.0398 µM [falling, full curve, poor fit].

Consider `CCCCCCC1C(C#N)=C(N)OC2=C1C(=O)CCC2` (stereo unspecified), for which the AC50 is 12.6 µM [rising, single point].

In the case of `O=C(CCC(=O)c1ccc[nH]1)c1ccc(Cl)cc1`, the concentration at half-maximal activity (AC50) is 1.58 µM [falling, partial curve, poor fit].

On to `COc1ccc(CC(=O)Nc2cccc(-c3nnc(-c4cccc(C)c4)o3)c2)cc1OC`, for which the half-maximal activity concentration (AC50) is 1.26 µM [falling, full curve].

As to `COc1cc(C(=O)N2CCN(C(=O)C(Cc3cc(C)ccc3C)NC(C)=O)CC2)cc(OC)c1OC` (stereo unspecified), the concentration at half-maximal activity (AC50) is 2.51 µM [falling, partial curve].

For the compound `c1ccc(CN2CCN(c3ncnc4nc[nH]c34)CC2)cc1`, the half-maximal activity concentration (AC50) was 12.6 µM [rising, single point].

As for `CCSc1nnc(NC(=O)c2ccc(Br)s2)s1`, the AC50 was 0.00316 µM [falling, full curve, poor fit].

For the compound `CC1=CCC(C(=O)O)C(C(=O)O)C1` (stereo unspecified), the AC50 was 0.00398 µM [falling, full curve, poor fit].

`Cc1c(C(=O)O)sc2nc3n(c(=O)c12)CCC(C)CC3` (stereo unspecified): the AC50 was 0.00398 µM [falling, full curve, poor fit].

For the compound `Cc1ccc(NC(=O)CN2C(=O)NC(Cc3ccccc3)C2=O)cc1` (stereo unspecified), the half-maximal activity concentration (AC50) was 0.00631 µM [falling, full curve].

With `C=CCN1CN(S(=O)(=O)c2cccs2)c2nc3ccccc3nc21`, the AC50 was 12.6 µM [rising, partial curve].

Take `Cc1ccc(S(=O)(=O)Nc2nc3ccccc3nc2NCc2ccco2)cc1C`: the AC50 was 25.1 µM [rising, single point].

Turning to `COc1ccc(NC(=O)C2CCCN(S(=O)(=O)c3cccc4cccnc34)C2)cc1OC` (stereo unspecified), the AC50 was 2.51 µM [rising, partial curve].

As to `O=C(OCCN1C(=O)c2ccccc2C1=O)c1cc(=O)[nH]c2ccccc12`, the AC50 is 10 µM [rising, partial curve].

Regarding `Cc1cccc(OCc2nnc(SCC(=O)N(C(C)C)C(C)C)n2Cc2ccco2)c1C`, the half-maximal activity concentration (AC50) is 10 µM [rising, partial curve].

`Cc1nnc(OCc2nc3ccccc3n2C)c2ccccc12`: the concentration at half-maximal activity (AC50) is 3.98 µM [rising, partial curve].

Turning to `COc1ccc(C(c2nnnn2Cc2ccc(F)cc2)N2CCN(c3ccccc3)CC2)cc1` (stereo unspecified), the AC50 was 1.58 µM [falling, partial curve, poor fit].

Regarding `COC(=O)c1sc(NC(=O)c2ccc(OC)cc2OC)nc1C`, the concentration at half-maximal activity (AC50) is 25.1 µM [rising, single point].

On to `COc1cc(OC)nc(NC(=O)CSc2nc3ccccc3[nH]2)n1`, for which the AC50 was 15.8 µM [rising, single point].

Take `COc1ccc(-c2noc(CCC(=O)N(C)c3cccc(C)c3)n2)cc1`: the AC50 is 20 µM [rising, partial curve, poor fit].

For the compound `OC1CCCN(c2c3c(nc4cc(-c5cccc(Cl)c5)nn24)CCC3)C1` (stereo unspecified), the AC50 is 12.6 µM [rising, partial curve].

For `COC(=O)[C@@]1(Cc2ccc(OC)cc2)[C@H]2c3cc(C(=O)N4CCCC4)n(Cc4ccc(O)c(OC)c4)c3C[C@H]2CN1C(=O)c1ccccc1`, the AC50 was 2.51 µM [rising, full curve].

As to `O=C(NCC(c1cccnc1)N1CCN(c2ccc(F)cc2)CC1)OCc1ccccc1` (stereo unspecified), the concentration at half-maximal activity (AC50) is 0.1 µM [falling, full curve].

In the case of `COc1ccc(S(=O)(=O)N(CCN2CCOCC2)Cc2cc(OC)ccc2OC)cc1`, the AC50 was 31.6 µM [rising, single point].

As for `COc1cccc(OCCOc2cccc(/C=N/n3cnnc3)c2)c1`, the AC50 was 25.1 µM [rising, single point].

Consider `Cc1ccc(Cn2ccc(NC(=O)c3cc(-c4ccco4)on3)n2)cc1`, for which the AC50 is 0.0316 µM [falling, full curve, poor fit].

As for `CCC(c1nnc(SCC(=O)Nc2nnc(-c3ccccc3)o2)o1)N(C)C` (stereo unspecified), the AC50 is 0.251 µM [falling, full curve, poor fit].

`CCOc1ccc(CCNC(=O)Cn2c(-c3nonc3N)nc3ccccc32)cc1OCC`: the AC50 is 0.794 µM [rising, full curve].

As to `N#CCCn1c(=O)c(-c2ccccc2)nc2cnc(N3CCOCC3)nc21`, the AC50 is 3.98 µM [rising, partial curve].

`O=C(OCc1nc2ccccc2s1)C1CCN(S(=O)(=O)c2cccs2)CC1`: the AC50 was 3.98 µM [falling, single point].

Turning to `Nc1c(C(=O)c2ccc(Br)s2)oc2ccccc12`, the AC50 was 12.6 µM [rising, single point].

As for `O=C(c1ccco1)N1CCN(C(=O)C2CCCO2)CC1` (stereo unspecified), the AC50 was 0.01 µM [falling, full curve, poor fit].

On to `O=C(CSc1nc2ncc(Br)cc2[nH]1)Nc1ccc2c(c1)OCO2`, for which the concentration at half-maximal activity (AC50) is 0.126 µM [falling, full curve, poor fit].

`c1ccc(Cn2nnc3c(N4CCCC4)ncnc32)cc1`: the AC50 was 12.6 µM [rising, partial curve].

Turning to `O=C(Nc1cccc(C(F)(F)F)c1)C1CCCN1S(=O)(=O)c1cccc2cccnc12` (stereo unspecified), the AC50 is 0.01 µM [falling, full curve, poor fit].

On to `CN(C)CCCN1C(=O)C(=O)/C(=C(/O)c2ccc3c(c2)OCCO3)C1c1ccco1` (stereo unspecified), for which the half-maximal activity concentration (AC50) is 25.1 µM [rising, single point].

As for `CC(C)Cc1nnc(NC(=O)c2ccncc2)s1`, the AC50 is 0.251 µM [falling, partial curve].

Take `c1ccc2c(-c3ccncc3)c[nH]c2c1`: the AC50 is 15.8 µM [falling, partial curve].

Turning to `COc1cccc(C2CC(c3ccccc3Cl)Nc3nc(N)nn32)c1` (stereo unspecified), the AC50 was 25.1 µM [rising, single point].

In the case of `Cc1c(N=Cc2c(O)n(Cc3ccco3)c(=O)c3ccccc23)c(=O)n(-c2ccccc2)n1C`, the AC50 was 5.01 µM [rising, partial curve].

Turning to `N#Cc1c(NC(=O)Cn2cnc3ccccc3c2=O)oc(-c2ccccc2)c1-c1ccccc1`, the AC50 is 7.94 µM [rising, partial curve].

Take `COCCn1c(=O)c(-c2cccs2)nc2cnc(N3CCN(C)CC3)nc21`: the AC50 was 10 µM [rising, partial curve].

For the compound `O=C(Nc1ccc(N2CCN(C(=O)c3ccco3)CC2)c(Cl)c1)c1cc2ccccc2o1`, the AC50 is 6.31 µM [falling, partial curve].

With `COC(=O)C1=C(C)N(Cc2ccco2)C(=O)C1`, the AC50 was 0.00398 µM [falling, full curve].

`COc1ccc(-c2noc(CSc3nc(N)c(-c4ccccc4)c(=O)[nH]3)n2)cc1OC`: the half-maximal activity concentration (AC50) was 20 µM [rising, single point].

With `CCn1c(C(C)NC(=O)c2ccc(OC)c(OC)c2)nc2ccccc21` (stereo unspecified), the AC50 was 25.1 µM [rising, single point].

Turning to `CCOc1cc(-c2noc(CCCC(N)=O)n2)cc(Br)c1OC`, the AC50 was 3.98 µM [rising, partial curve, poor fit].

As for `COc1ccc(-c2nc3cnc(N4CCOCC4)nc3n(C[C@H]3CCCO3)c2=O)cc1`, the half-maximal activity concentration (AC50) is 12.6 µM [rising, partial curve].

In the case of `COc1ccc(S(=O)(=O)Nc2ccc(C)cc2)cc1OC`, the AC50 is 20 µM [rising, single point].

Take `CCN(CCCCN1C(=O)c2ccccc2C1=O)c1ccc2c(c1)C(=O)N(C)C2=O`: the AC50 is 2 µM [rising, full curve].

Consider `NC(=O)c1c(NC(=O)CSc2nnc(-c3ccco3)n2-c2ccccc2)sc2c1CCC2`, for which the AC50 was 15.8 µM [rising, single point].

`CCN(CC)CCCN1C(=O)C(O)=C(C(=O)c2cc3ccccc3o2)C1c1ccccn1` (stereo unspecified): the AC50 was 25.1 µM [rising, single point].

As for `COc1cc(-c2ccccc2)nc(N)n1`, the AC50 is 2 µM [rising, partial curve].

Regarding `CN1C(=O)c2ccccc2C(C(=O)NCCCN2CCCC2)C1c1c[nH]c2ccccc12` (stereo unspecified), the AC50 is 0.00794 µM [falling, full curve, poor fit].

Turning to `CC1(C)C(=O)Nc2ccccc2N1C(=O)COC(=O)C12CC3CC(CC(O)(C3)C1)C2`, the AC50 was 15.8 µM [falling, partial curve, poor fit].

Source of the values: PubChem BioAssay AID662 (National Center for Advancing Translational Sciences (NCATS), 2007).
